Among the data in article PMC6367455 are binding values, retold here.

Amino acid sequences for entries named in this document (tags omitted).
UniProt Q4KWH8: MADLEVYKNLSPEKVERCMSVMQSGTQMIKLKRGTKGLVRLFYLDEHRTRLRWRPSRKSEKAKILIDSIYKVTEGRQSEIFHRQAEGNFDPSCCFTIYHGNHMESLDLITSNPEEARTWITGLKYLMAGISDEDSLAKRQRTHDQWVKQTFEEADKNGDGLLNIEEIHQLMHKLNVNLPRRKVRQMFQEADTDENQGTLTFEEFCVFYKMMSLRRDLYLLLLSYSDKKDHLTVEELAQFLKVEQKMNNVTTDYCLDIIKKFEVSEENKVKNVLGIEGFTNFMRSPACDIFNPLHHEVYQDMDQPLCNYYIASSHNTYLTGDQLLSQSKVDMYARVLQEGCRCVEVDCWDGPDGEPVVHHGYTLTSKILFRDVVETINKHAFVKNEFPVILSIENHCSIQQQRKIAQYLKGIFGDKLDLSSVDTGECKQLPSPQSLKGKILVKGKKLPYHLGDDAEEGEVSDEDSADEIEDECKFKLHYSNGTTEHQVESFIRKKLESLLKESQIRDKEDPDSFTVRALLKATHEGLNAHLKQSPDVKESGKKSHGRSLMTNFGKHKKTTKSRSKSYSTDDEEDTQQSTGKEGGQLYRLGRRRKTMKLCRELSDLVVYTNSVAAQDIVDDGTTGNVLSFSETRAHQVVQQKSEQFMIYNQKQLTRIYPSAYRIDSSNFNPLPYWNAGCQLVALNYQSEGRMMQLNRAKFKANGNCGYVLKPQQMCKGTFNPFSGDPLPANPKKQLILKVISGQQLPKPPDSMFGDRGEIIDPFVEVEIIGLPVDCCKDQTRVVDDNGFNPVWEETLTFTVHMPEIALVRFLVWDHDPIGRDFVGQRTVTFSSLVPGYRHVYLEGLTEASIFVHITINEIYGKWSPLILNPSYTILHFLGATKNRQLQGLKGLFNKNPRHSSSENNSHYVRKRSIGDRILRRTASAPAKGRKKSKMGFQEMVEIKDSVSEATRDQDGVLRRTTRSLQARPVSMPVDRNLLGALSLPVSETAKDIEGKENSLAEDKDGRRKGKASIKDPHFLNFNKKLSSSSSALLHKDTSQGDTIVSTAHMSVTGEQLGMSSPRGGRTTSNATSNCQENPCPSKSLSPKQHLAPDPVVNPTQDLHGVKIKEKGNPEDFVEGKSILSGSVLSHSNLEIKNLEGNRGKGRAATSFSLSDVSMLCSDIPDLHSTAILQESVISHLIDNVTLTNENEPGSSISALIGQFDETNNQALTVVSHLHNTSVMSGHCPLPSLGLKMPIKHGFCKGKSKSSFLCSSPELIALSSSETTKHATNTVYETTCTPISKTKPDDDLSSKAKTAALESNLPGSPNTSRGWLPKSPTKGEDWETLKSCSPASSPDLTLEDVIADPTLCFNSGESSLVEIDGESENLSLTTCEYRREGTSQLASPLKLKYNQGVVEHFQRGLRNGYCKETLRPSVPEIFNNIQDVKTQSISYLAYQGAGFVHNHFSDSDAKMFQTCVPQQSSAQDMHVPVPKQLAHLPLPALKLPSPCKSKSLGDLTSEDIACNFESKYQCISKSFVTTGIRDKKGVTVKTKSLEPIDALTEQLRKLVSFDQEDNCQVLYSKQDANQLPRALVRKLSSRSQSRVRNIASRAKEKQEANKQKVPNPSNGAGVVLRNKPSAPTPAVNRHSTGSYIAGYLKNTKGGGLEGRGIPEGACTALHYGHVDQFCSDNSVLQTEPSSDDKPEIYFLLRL
UniProt Q9UBN7: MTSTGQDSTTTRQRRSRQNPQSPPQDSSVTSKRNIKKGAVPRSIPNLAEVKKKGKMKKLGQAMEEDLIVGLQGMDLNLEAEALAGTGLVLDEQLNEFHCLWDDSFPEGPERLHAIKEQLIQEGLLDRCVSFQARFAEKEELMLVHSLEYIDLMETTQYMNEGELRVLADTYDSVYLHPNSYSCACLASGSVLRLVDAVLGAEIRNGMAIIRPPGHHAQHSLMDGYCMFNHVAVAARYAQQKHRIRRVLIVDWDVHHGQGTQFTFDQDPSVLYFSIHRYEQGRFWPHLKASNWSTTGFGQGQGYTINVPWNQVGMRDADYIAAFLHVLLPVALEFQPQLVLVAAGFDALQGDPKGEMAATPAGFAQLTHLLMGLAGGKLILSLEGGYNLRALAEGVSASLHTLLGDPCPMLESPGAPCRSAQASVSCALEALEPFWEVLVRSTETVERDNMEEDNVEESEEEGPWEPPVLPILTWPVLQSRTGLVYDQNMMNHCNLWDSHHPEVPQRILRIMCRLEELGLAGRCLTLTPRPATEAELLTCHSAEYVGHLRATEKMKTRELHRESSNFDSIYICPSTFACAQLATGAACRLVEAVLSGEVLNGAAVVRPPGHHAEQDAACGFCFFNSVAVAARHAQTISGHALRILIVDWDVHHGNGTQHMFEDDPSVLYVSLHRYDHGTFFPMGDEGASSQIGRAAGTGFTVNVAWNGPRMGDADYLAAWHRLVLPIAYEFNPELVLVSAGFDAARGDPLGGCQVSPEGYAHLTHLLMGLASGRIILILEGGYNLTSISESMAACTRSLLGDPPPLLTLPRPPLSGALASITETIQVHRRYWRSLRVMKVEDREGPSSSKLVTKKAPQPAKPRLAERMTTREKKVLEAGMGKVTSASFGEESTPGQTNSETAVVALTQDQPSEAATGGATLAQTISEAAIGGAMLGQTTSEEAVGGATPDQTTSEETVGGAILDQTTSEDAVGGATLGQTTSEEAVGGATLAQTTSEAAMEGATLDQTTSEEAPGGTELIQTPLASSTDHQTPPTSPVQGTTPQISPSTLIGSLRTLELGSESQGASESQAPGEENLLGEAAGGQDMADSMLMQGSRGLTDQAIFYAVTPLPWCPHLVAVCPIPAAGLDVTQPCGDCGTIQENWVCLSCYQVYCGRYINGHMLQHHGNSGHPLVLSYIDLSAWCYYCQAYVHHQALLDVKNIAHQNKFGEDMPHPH

For assay [1], the target named is T1, FLCN-GFP fusion protein (Folliculin) (human) (UniProt Q8NFG4).
T1 sequence: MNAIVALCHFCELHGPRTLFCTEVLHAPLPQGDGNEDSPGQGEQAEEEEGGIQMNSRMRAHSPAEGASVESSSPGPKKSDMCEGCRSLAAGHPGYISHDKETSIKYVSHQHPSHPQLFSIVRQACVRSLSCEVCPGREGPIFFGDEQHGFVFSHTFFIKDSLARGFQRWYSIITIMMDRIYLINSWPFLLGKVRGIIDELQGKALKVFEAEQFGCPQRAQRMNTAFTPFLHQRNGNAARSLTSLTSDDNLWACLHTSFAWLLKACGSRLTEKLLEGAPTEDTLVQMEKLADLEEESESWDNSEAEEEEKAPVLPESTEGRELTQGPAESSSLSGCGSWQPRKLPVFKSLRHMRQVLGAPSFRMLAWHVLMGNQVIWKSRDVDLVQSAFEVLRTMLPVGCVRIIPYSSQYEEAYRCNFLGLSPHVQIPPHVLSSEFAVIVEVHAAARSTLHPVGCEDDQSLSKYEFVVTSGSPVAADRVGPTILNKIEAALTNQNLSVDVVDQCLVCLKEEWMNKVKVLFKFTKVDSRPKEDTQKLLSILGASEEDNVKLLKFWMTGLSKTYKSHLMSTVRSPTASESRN
As to the kind of experiment: affinity purification with mass spectrometry; as a1, the sample of naive hESC (2iL-I-F) alone.

Assay [2] deals with T1, FLCN-GFP fusion protein (Folliculin) (human). The assay is described as follows: affinity purification with mass spectrometry; FLCN-GFP precipitated on GFP-Trap-A beads from lysates of Elf1 FLCN KO + FLCN-GFP hESC, naive (2iL-I-F) and exiting the naive state (3D TeSR); plus against minus doxycycline; label free quantification, 5% FDR.
Assay [3] has the same target. As to the kind of experiment: affinity purification with mass spectrometry; as a1, the sample of naive hESC (2iL-I-F) alone. The source holds these as a separate data set.

Results are given in words; binding and its absence hold for the method and conditions named. In cells and extracts the contact can be indirect. A yes stands for co-enrichment or nearness to the bait. Other partners may have been found. For some of these results: No binding means not detected with the bait. Tags and fused reporters may be left off the sequences shown.

On to PLCH1 (from UniProt Q4KWH8 1-1693), for which the binding result in assay [1] is given as “no binding (only in naïve hESC)”; in assay [2] it was “binds”. Consider “Caspase 14 (human (endogenous in Elf1 hESC))”, for which the binding entry in assay [2] is “binds”. As to HDAC6 (from UniProt Q9UBN7 1-1215), in assay [2], the binding result is recorded as “binds”.

B1: TOR Signaling Pathway Regulator (TIPRL) (protein, UniProt O75663 1-272)
chain: MMIHGFQSSHRDFCFGPWKLTASKTHIMKSADVEKLADELHMPSLPEMMFGDNVLRIQHGSGFGIEFNATDALRCVNNYQGMLKVACAEEWQESRTEGEHSKEVIKPYDWTYTTDYKGTLLGESLKLKVVPTTDHIDTEKLKAREQIKFFEEVLLFEDELHDHGVSSLSVKIRVMPSSFFLLLRFFLRIDGVLIRMNDTRLYHEADKTYMLREYTSRESKISSLMHVPPSLFTEPNEISQYLPIKEAVCEKLIFPERIDPNPADSQKSTQVE
For the molecule B1, the binding entry is “no binding (only in naïve hESC)” in assay [3] and “binds” in assay [2].

B2: ARAP1 (protein, UniProt Q96P48 1-1450)
chain: MAEAGDAALSVAEWLRALHLEQYTGLFEQHGLVWATECQGLSDTRLMDMGMLLPGHRRRILAGLLRAHTSPAPAPRPTPRPVPMKRHIFRSPPVPATPPEPLPTTTEDEGLPAAPPIPPRRSCLPPTCFTTPSTAAPDPVLPPLPAKRHLAELSVPPVPPRTGPPRLLVSLPTKEEESLLPSLSSPPQPQSEEPLSTLPQGPPQPPSPPPCPPEIPPKPVRLFPEFDDSDYDEVPEEGPGAPARVMTKKEEPPPSRVPRAVRVASLLSEGEELSGDDQGDEEEDDHAYEGVPNGGWHTSSLSLSLPSTIAAPHPMDGPPGGSTPVTPVIKAGWLDKNPPQGSYIYQKRWVRLDTDHLRYFDSNKDAYSKRFISVACISHVAAIGDQKFEVITNNRTFAFRAESDVERKEWMQALQQAMAEQRARARLSSAYLLGVPGSEQPDRAGSLELRGFKNKLYVAVVGDKVQLYKNLEEYHLGIGITFIDMSVGNVKEVDRRSFDLTTPYRIFSFSADSELEKEQWLEAMQGAIAEALSTSEVAERIWAAAPNRFCADCGAPQPDWASINLCVVICKRCAGEHRGLGAGVSKVRSLKMDRKVWTETLIELFLQLGNGAGNRFWAANVPPSEALQPSSSPSTRRCHLEAKYREGKYRRYHPLFGNQEELDKALCAAVTTTDLAETQALLGCGAGINCFSGDPEAPTPLALAEQAGQTLQMEFLRNNRTTEVPRLDSMKPLEKHYSVVLPTVSHSGFLYKTASAGKLLQDRRAREEFSRRWCVLGDGVLSYFENERAVTPNGEIRASEIVCLAVPPPDTHGFEHTFEVYTEGERLYLFGLESAEQAHEWVKCIAKAFVPPLAEDLLARDFERLGRLPYKAGLSLQRAQEGWFSLSGSELRAVFPEGPCEEPLQLRKLQELSIQGDSENQVLVLVERRRTLYIQGERRLDFMGWLGAIQKAAASMGDTLSEQQLGDSDIPVIVYRCVDYITQCGLTSEGIYRKCGQTSKTQRLLESLRQDARSVHLKEGEQHVDDVSSALKRFLRDLPDGLFTRAQRLTWLEASEIEDEEEKVSRYRELLVRLPPVNRATVKALISHLYCVQCFSDTNQMNVHNLAIVFGPTLFQTDGQDYKAGRVVEDLINHYVVVFSVDEEELRKQREEITAIVKMRVAGTASGTQHAGDFICTVYLEEKKAETEQHIKVPASMTAEELTLEILDRRNVGIREKDYWTCFEVNEREEAERPLHFAEKVLPILHGLGTDSHLVVKKHQAMEAMLLYLASRVGDTKHGMMKFREDRSLLGLGLPSGGFHDRYFILNSSCLRLYKEVRSQRPWSGAPETSHRPEKEWPIKSLKVYLGVKKKLRPPTCWGFTVVHETEKHEKQQWYLCCDTQMELREWFATFLFVQHDGLVWPSEPSRVSRAVPEVRLGSVSLIPLRGSENEMRRSVAAFTADPLSLLRNV
Take B2: the binding entry in assay [3] is on record as “no binding (only in naïve hESC)”; in assay [2], “binds”.

B3: RAP2B (protein, UniProt P61225 1-183)
chain: MREYKVVVLGSGGVGKSALTVQFVTGSFIEKYDPTIEDFYRKEIEVDSSPSVLEILDTAGTEQFASMRDLYIKNGQGFILVYSLVNQQSFQDIKPMRDQIIRVKRYERVPMILVGNKVDLEGEREVSYGEGKALAEEWSCPFMETSAKNKASVDELFAEIVRQMNYAAQPNGDEGCCSACVIL
On to B3, for which the binding result in assay [3] was “no binding (only in naïve hESC)”; in assay [2] it was “binds”.

B4: FLCN Interacting Protein 1 (FNIP1) (protein, UniProt Q8TF40 1-1166)
chain: MAPTLFQKLFSKRTGLGAPGRDARDPDCGFSWPLPEFDPSQIRLIVYQDCERRGRNVLFDSSVKRRNEDISVSKLGSDAQVKVFGKCCQLKPGGDSSSSLDSSVTSSSDIKDQCLKYQGSRCSSDANMLGEMMFGSVAMSYKGSTLKIHQIRSPPQLMLSKVFTARTGSSICGSLNTLQDSLEFINQDNNTLKADNNTVINGLLGNIGLSQFCSPRRAFSEQGPLRLIRSASFFAVHSNPMDMPGRELNEDRDSGIARSASLSSLLITPFPSPNSSLTRSCASSYQRRWRRSQTTSLENGVFPRWSIEESFNLSDESCGPNPGIVRKKKIAIGVIFSLSKDEDENNKFNEFFFSHFPLFESHMNKLKSAIEQAMKMSRRSADASQRSLAYNRIVDALNEFRTTICNLYTMPRIGEPVWLTMMSGTPEKNHLCYRFMKEFTFLMENASKNQFLPALITAVLTNHLAWVPTVMPNGQPPIKIFLEKHSSQSVDMLAKTHPYNPLWAQLGDLYGAIGSPVRLARTVVVGKRQDMVQRLLYFLTYFIRCSELQETHLLENGEDEAIVMPGTVITTTLEKGEIEESEYVLVTMHRNKSSLLFKESEEIRTPNCNCKYCSHPLLGQNVENISQQEREDIQNSSKELLGISDECQMISPSDCQEENAVDVKQYRDKLRTCFDAKLETVVCTGSVPVDKCALSESGLESTEETWQSEKLLDSDSHTGKAMRSTGMVVEKKPPDKIVPASFSCEAAQTKVTFLIGDSMSPDSDTELRSQAVVDQITRHHTKPLKEERGAIDQHQETKQTTKDQSGESDTQNMVSEEPCELPCWNHSDPESMSLFDEYFNDDSIETRTIDDVPFKTSTDSKDHCCMLEFSKILCTKNNKQNNEFCKCIETVPQDSCKTCFPQQDQRDTLSILVPHGDKESSDKKIAVGTEWDIPRNESSDSALGDSESEDTGHDMTRQVSSYYGGEQEDWAEEDEIPFPGSKLIEVSAVQPNIANFGRSLLGGYCSSYVPDFVLQGIGSDERFRQCLMSDLSHAVQHPVLDEPIAEAVCIIADMDKWTVQVASSQRRVTDNKLGKEVLVSSLVSNLLHSTLQLYKHNLSPNFCVMHLEDRLQELYFKSKMLSEYLRGQMRVHVKELGVVLGIESSDLPLLAAVASTHSPYVAQILL
With B4, the binding entry in assay [2] is “binds”.

B5: CD59 (protein, UniProt P13987 26-102)
chain: LQCYNCPNPTADCKTAVNCSSDFDACLITKAGLQVYNKCWKFEHCNFNDVTTRLRENELTYYCCKKDLCNFNEQLEN
As for B5, the binding entry in assay [3] is “no binding (only in naïve hESC)”; in assay [2], “binds”.
